Laboratory results taken from the supplement of paper PMC12889115.
Some of the results follow. Values are raw readings; no control value is given beside them.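 In the initial screen, polymyxin B was used at a concentration that permeabilizes Salmonella's outer membrane but not its inner membrane. Maximum growth was set by DMSO wells with or without polymyxin B. Since plates varied, data were ranked per plate, and compounds giving the lowest OD600 advanced as hits.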

Test system: Salmonella enterica serovar Typhimurium SL1344
Experiment: bacterial growth OD600 after 18 h with compound and polymyxin B; higher = more bacterial growth (less inhibition)
Conditions: 50 µM, Mueller-Hinton broth

Compound	bacterial growth OD600 (polymyxin B 0.75 µg/mL)	bacterial growth OD600 (polymyxin B 1 µg/mL)
COc1cc(-c2cccs2)cc2c1OCCN(CC(C)C)C2	0.89	–
COC(=O)c1cccc(-c2cc(Cl)c3c(c2)CC(CNC(=O)CSc2ncccn2)O3)c1 (stereo unspecified)	0.008	–
COCCNc1ccc(-c2nc(-c3ccccc3C)no2)cn1	0.008	–
O=C(NCc1cccnc1)c1ccc(N2CCC(NCCc3ccccc3C(F)(F)F)CC2)cc1	0.773	–
COc1cc2c(cc1CNCc1cccnc1N1CCCCCCC1)OCO2	0.796	–
O=C(NC1CC1)C1CCCN(C2CCN(C3Cc4ccccc4C3)CC2)C1 (stereo unspecified)	0.84	–
COc1cc(CN2CCC(n3nccc3NC(=O)CC(C)C)CC2)ccc1F	–	0.933
CN(Cc1ccccc1)C1(C(=O)N2CC[C@H](O)C2)Cc2ccccc2C1	0.564	–
O=C(c1ccc(N2CCC(NCC(c3ccccc3)c3ccccc3)CC2)cc1)N1CCCC(O)C1 (stereo unspecified)	0.778	–
OCCC1CN(Cc2cc(F)cc(F)c2)CCN1Cc1ccccc1F (stereo unspecified)	–	0.837
COc1ccccc1OCC(=O)N1CCc2onc(-c3ccccc3F)c2C1	0.533	–
CCN(Cc1nccn1C)C(=O)c1ccc(N2CCCC2)nc1	–	0.888
CCNCc1cn(-c2ccccc2)nc1-c1ccc2c(c1)OCO2	–	0.842
O=C(CCCc1ccccc1)Nc1cccc(N2CCC(N3CCC(Oc4cccnc4)CC3)CC2)c1	0.541	–
CC(C)CN(C)c1ccc(C(=O)N2CCCN(c3ncccn3)CC2)cn1	0.717	–
O=C(CCc1c[nH]c2ccccc12)N1CCOc2ccc(CN3CCN(c4ccccn4)CC3)cc2C1	0.801	–

Compound	bacterial growth OD600 (polymyxin B 0.75 µg/mL)	bacterial growth OD600 (polymyxin B 1 µg/mL)
CCOC(=O)C1(Cc2ccccc2)CCN(Cc2cccc(OC)c2OC)CC1	–	0.803
Cc1ccc(OCc2cc(C(=O)NC(C)Cn3nc(C)cc3C)no2)cn1 (stereo unspecified)	–	0.933
CN1CCCC2(CCN(C(=O)CCn3cnc4ccccc43)C2)C1=O (stereo unspecified)	–	0.769
COc1ccc(CCN(C)C2CCCN(C(=O)c3cc(CC(C)C)n[nH]3)C2)cc1OC (stereo unspecified)	–	0.862
COc1ccc(F)c(CN2CCCC3(CCN(C(=O)c4ccccc4)C3)C2=O)c1 (stereo unspecified)	–	0.903
O=C(Nc1ccccc1Oc1cccnc1)C1CCCN(C(=O)c2cc(F)ccc2F)C1 (stereo unspecified)	–	1.04
CO[C@H]1[C@H](NC(=O)c2ccccn2)c2ccccc2C12CCN(C(=O)COc1ccccc1)CC2	0.833	–
C=CCCC(=O)N1CCC(N2CCCC(C(=O)NC3CC3)C2)CC1 (stereo unspecified)	0.808	–
Cc1oc(-c2ccc(NC(=O)Cc3ccccc3)cc2)nc1CNC(=O)Cc1ccsc1	0.945	–
Cc1ccc2c(c1)CN(CC(=O)NC1CCCC1)CC(c1ccsc1)O2 (stereo unspecified)	0.02	–
CCCc1cc(C(=O)N2CCc3c(cnc(C)c3CNC(=O)c3ccc4c(c3)OCO4)C2)n(C)n1	0.791	–
COc1cc(-c2nc(CN(C)C(C)c3ccon3)c(C)o2)ccc1F (stereo unspecified)	–	0.843
Cc1nn(C)cc1CN(C)C(=O)CC(c1ccccc1)c1ccccc1F (stereo unspecified)	–	1.22
CCOC(=O)C1(CCOc2ccccc2)CCN(C(=O)Cn2nc3ccccc3n2)CC1	–	0.633
Cc1c(CN2CCN(Cc3ccccc3F)C(CCO)C2)[nH]c2ccccc12 (stereo unspecified)	–	0.873

Two entries from above in another layout.
C=CCCC(=O)N1CCC(N2CCCC(C(=O)NC3CC3)C2)CC1 (stereo unspecified)
  bacterial growth OD600 (polymyxin B 0.75 µg/mL): 0.808
Cc1oc(-c2ccc(NC(=O)Cc3ccccc3)cc2)nc1CNC(=O)Cc1ccsc1
  bacterial growth OD600 (polymyxin B 0.75 µg/mL): 0.945
